Results from paper PMC7179242.
These are yes or no findings as the source states them, for the method shown. Binding calls can cover weak binding; strength is not graded here.

Sequences of proteins named here, by UniProt entry; tags and fusion partners are left off. A change or cut given only in a name is not applied to a line headed by its entry.
UniProt P33442: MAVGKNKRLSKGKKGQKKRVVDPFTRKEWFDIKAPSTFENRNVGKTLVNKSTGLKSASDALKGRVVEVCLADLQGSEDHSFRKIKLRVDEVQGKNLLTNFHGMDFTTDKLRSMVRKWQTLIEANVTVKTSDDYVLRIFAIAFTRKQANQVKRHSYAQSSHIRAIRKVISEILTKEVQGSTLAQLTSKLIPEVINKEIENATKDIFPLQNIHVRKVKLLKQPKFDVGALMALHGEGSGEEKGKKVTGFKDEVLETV

Biological target: T1, Tsr1-FPZ (S. cerevisiae) (UniProt Q07381)
T1 sequence (chain, phosphorylated on T354 or S358 (100% of the peptide)): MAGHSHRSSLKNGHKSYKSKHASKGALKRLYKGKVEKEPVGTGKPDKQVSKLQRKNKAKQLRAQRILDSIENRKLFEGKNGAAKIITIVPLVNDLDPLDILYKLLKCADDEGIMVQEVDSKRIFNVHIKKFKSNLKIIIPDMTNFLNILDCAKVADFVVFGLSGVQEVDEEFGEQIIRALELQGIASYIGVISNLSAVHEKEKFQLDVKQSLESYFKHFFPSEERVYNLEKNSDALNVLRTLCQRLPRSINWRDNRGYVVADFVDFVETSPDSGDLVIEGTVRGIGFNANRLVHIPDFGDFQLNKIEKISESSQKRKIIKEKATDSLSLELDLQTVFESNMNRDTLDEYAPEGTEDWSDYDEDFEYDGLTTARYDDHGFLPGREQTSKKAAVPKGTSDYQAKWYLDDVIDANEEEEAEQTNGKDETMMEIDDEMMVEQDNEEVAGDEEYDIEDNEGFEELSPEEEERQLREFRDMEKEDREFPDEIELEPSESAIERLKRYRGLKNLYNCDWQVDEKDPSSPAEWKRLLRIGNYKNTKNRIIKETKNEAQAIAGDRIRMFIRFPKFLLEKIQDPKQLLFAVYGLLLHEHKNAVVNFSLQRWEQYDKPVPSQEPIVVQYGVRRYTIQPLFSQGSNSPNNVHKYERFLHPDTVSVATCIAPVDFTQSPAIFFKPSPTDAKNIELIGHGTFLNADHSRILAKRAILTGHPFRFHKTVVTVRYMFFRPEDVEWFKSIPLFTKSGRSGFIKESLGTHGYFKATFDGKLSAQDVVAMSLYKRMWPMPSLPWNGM
Assay: cryo-EM structure; single particle analysis of Tsr1-FPZ pre-40S particles (ribonucleoprotein, purified from yeast by the bait Tsr1); consensus 3.1 Å, global classes GC1-GC3, focused classes H1-H3 (head) and P1-P3 (platform)

| binding | Substance |
| --- | --- |
| binds | Rps1 (from UniProt P33442) |
| binds | Rps29 (S. cerevisiae (endogenous in BY4742)) |
